PubChem BioAssay AID1671190 (National Center for Advancing Translational Sciences (NCATS), 2021)
About 6,100 (1.1%) of roughly 580,000 compounds were called active. The shares of active, inactive and inconclusive entries below differ from those in the screen. Calls follow the shape of the dose curve; as a rule, active = well fitted inhibition curve with a large enough effect; inconclusive = small, poorly fitted or top-dose-only effect, or another doubt; inactive = no such curve, though single readings can be large or run the other way. Potencies beside an inconclusive call are fits to weak or partial responses and may not hold up.

The chains behind the UniProt entries cited, without tags or fusion partners. Where a name states a change or a piece, a line headed by the entry shows the natural chain unless it says otherwise.
UniProt P18054: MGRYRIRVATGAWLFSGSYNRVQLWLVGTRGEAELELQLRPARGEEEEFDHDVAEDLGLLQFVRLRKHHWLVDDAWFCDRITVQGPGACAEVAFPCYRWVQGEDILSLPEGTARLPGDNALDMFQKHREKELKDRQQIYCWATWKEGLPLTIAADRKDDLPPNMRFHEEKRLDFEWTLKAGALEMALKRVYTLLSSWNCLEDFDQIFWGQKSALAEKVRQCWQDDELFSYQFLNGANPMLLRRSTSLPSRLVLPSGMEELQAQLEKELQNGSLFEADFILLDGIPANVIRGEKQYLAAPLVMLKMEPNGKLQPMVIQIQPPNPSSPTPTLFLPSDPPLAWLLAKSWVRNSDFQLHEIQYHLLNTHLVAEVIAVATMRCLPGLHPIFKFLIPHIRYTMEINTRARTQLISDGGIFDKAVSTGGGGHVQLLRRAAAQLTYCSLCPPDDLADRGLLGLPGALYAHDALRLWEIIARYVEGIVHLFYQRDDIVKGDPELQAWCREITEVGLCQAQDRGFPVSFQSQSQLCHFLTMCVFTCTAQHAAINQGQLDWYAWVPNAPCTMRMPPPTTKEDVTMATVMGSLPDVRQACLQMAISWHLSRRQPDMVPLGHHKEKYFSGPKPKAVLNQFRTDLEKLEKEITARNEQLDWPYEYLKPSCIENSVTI

The compounds below were run against Polyunsaturated fatty acid lipoxygenase ALOX12 (Homo sapiens) (UniProt P18054) (assay: Primary qHTS assay for inhibitors of human arachidonate 12S-lipoxygenase (ALOX12): Round 2). Conditions: purified 12hLO, xylenol orange hydroperoxide absorbance; activity change, negative = inhibition: at 108 µM (top of the series) unless noted.
In short: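 Hydroperoxide product was detected by ferrous iron/xylenol orange as the 573 to 405 nm absorbance ratio. Arachidonic acid at 40 uM (final) was turned over for 30 min at room temperature by 150 nM human 12hLO, pH 7.0 Hepes buffer, after 15 min compound preincubation.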
% is scaled to controls: 0 for no effect and ±100 for the full control effect; potency is read from the fitted curve at half-maximal effect.

Compound | Potency | activity change, negative = inhibition
Cc1ccc(-c2nn(CC(=O)O)c(=O)c3ccccc23)cc1 | inconclusive: 44.7 µM [inhibitor, single point] | 
COc1ccc(NC(=O)C2(C)CCN2C(=O)Cc2ccc(Cl)cc2Cl)cc1OC (configuration not stated) | inconclusive: 141 µM [inhibitor, single point] | 
CCN(CC)c1ccc(C=C2C(=O)OC(C)(C(C)(C)C)OC2=O)cc1 (configuration not stated) | inconclusive: 39.8 µM [inhibitor, partial curve, poor fit] | 
COc1ccc(N2CCN(C3(c4ccccc4)C(=O)c4ccccc4C3=O)CC2)cc1 |  | inactive: -1.27%
CCN(CC)C(=O)C1=C(C)NC(=O)NC1c1ccc(C(=O)OC)cc1 (configuration not stated) | inconclusive: 1.58 µM [inhibitor, partial curve, poor fit] | 
CC(C)c1nc2c(c(-c3ccc(Cl)cc3)n1)CCN(C(=O)c1ccc(C(F)(F)F)cc1)CC2 |  | inactive: 10.4% [at 6.33 µM]
O=C(COC(=O)C12CC3CC(CC(Cl)(C3)C1)C2)Nc1cccc([N+](=O)[O-])c1 | inconclusive: 39.8 µM [inhibitor, full curve, poor fit] | 
CSc1cc(-c2ccco2)oc1C(=O)c1ccco1 | inconclusive: 79.4 µM [inhibitor, partial curve, poor fit] | 
C=CCOc1c(Br)cc(CNCCCN2CCOCC2)cc1OC | inconclusive: 31.6 µM [inhibitor, partial curve, poor fit] | 
COc1ccc2nc(NC(=O)C3CCN(S(=O)(=O)c4cccc5nsnc45)CC3)sc2c1 |  | inactive: 0%
O=C1NC[C@H](Cc2ccc(O)cc2)N(C[C@H]2CCCN2C[C@H](Cc2ccc(O)cc2)N2C[C@H](Cc3ccc(O)cc3)N(CCc3ccccc3)C(=O)C2=O)C1=O | inconclusive: 2.24 µM [inhibitor, partial curve, poor fit] | 
Cc1cc2occ(CC(=O)Nc3ccc(Cl)cc3F)c2cc1C | inconclusive: 12.6 µM [inhibitor, partial curve, poor fit] | 
Cc1ccc(-c2nonc2NC(=O)c2ccccc2Br)cc1 |  | inactive: -22.5%
Cc1ccc(NS(=O)(=O)c2ccc(OCC(=O)NCc3ccco3)cc2)cc1 | inconclusive: 70.8 µM [inhibitor, partial curve, poor fit] | 
Cc1cc(C)cc(NC(=O)C(NCC2CCCO2)c2ccccc2)c1 (configuration not stated) |  | inactive: -10.5%
CC1(C)CC(NC(=S)Nc2ccccc2F)CC(C)(C)N1 | inconclusive: 112 µM [inhibitor, single point] | 
CCCCn1c(N)c(N(CC(C)C)C(=O)c2ccc(-c3ccc(Cl)cc3)o2)c(=O)[nH]c1=O | inconclusive: 158 µM [inhibitor, partial curve, poor fit] | 
COC(=O)/C=C1\N/C(=N\c2nc(C)cc(C)n2)N(c2ccccc2)C1=O | inconclusive: 2.82 µM [inhibitor, full curve, poor fit] | 
COc1ccc(NC(=S)NCCSc2ccc(C)cc2)c(OC)c1 | active: 35.5 µM | 
C=CCN(CC=C)CCOc1ccccc1 | inconclusive: 0.398 µM [inhibitor, full curve, poor fit] | 
CC(C)C[C@H]1COCCS(=O)(=O)N1Cc1ccccc1F | inconclusive: 112 µM [inhibitor, single point] | 
O=C1c2cc(Cl)ccc2-c2c(O)cc(Cl)cc21 | active: 35.5 µM | 
CN(C)CC(C)(C)NC(=O)c1csc2nc(-c3cccc(C(F)(F)F)c3)cn12 |  | inactive: 38.3%

Compound | Potency | activity change, negative = inhibition
COC(=O)C1=C(CS(=O)(=O)c2ccc(C)cc2C)NC(=O)NC1c1ccc(O)cc1 (configuration not stated) | inconclusive: 56.2 µM [inhibitor, partial curve, poor fit] | 
O=C(CCCSc1nc2ccccc2[nH]1)NC(c1ccccc1)c1ccccc1 |  | inactive: -10.6%
Clc1cccc(-c2nc3ccccn3c2Nc2ccc3c(c2)OCCO3)c1 | active: 6.31 µM | 
CCCCN(C(=O)c1ccc(S(=O)(=O)N(C)c2ccccc2)cc1)c1c(N)n(CCC)c(=O)[nH]c1=O | inconclusive: 100 µM [inhibitor, single point] | 
COC(=O)c1ccc(Nc2nc(-c3ccccc3Cl)nc3ccccc23)cc1 | inconclusive: 7.94 µM [inhibitor, full curve, poor fit] | 
CCCCc1cc(=O)oc2c(CN3CCCC3)c(O)c(Cl)cc12 | inconclusive: 44.7 µM [inhibitor, partial curve] | 
O=C(Nc1ccccc1Oc1cccnc1)C1CCCN(Cc2ccccc2O)C1 (configuration not stated) |  | inactive: -2.25%
COCCNC(=S)NCCN(Cc1ccccc1)C(=S)NCCOC | inconclusive: 50.1 µM [inhibitor, partial curve, poor fit] | 
COc1ccc(C2=NN(C(N)=S)C(c3ccco3)C2)cc1 (configuration not stated) | inconclusive: 39.8 µM [inhibitor, partial curve, poor fit] | 
COCCN(C(=O)CSc1nnc(-c2ccc(C)cc2)n1N)c1c(N)n(Cc2ccccc2)c(=O)[nH]c1=O |  | inactive: 483%
CCCCc1ccc(-c2csc(/C(C#N)=C\c3ccco3)n2)cc1 | inconclusive: 44.7 µM [inhibitor, partial curve, poor fit] | 
CCOC(=O)c1c(NC(=O)C2CCCO2)sc2c1CCC2 (configuration not stated) |  | inactive: -6.02%
O=C1NCCN(Cc2cccc(Oc3ccccc3)c2)C1CC(=O)N1CCCOCC1 (configuration not stated) |  | inactive: 5.69%
NC(=S)N/N=C/c1c(Cl)cccc1Cl |  | inactive: 4.31%
O=C(O)CCc1ccc(NCc2cccc(Oc3ccccc3)c2)cc1 | inconclusive: 0.968 µM [inhibitor, full curve] | 
Cc1cc(C)cc(NC(=O)COC(=O)c2nn(C)c(=O)c3ccccc23)c1 | inconclusive: 112 µM [inhibitor, partial curve, poor fit] | 
CC1=C(c2ccc(C)c(C)c2)S(=O)(=O)N=C1N1CCC(C(=O)NCc2ccccc2C)CC1 | inconclusive: 141 µM [inhibitor, single point] | 
COc1cccc(/C=N/N2C(=O)NC3(CCCCC3)C2=O)c1O | inconclusive: 20 µM [inhibitor, partial curve, poor fit] | 
CC(C)=CC(=O)Nc1ccc(Br)c(C)c1 | inconclusive: 141 µM [inhibitor, partial curve, poor fit] | 
COc1ccccc1N1CCN(CCCNC(=O)c2nnc(Cc3ccc(F)cc3Cl)o2)CC1 |  | inactive: 5.18%
CCC(=O)N1CCN(C2CCN(CCC(C)C)C2=O)CC1 (configuration not stated) | inconclusive: 10 µM [inhibitor, partial curve, poor fit] | 
CC(=O)NCCNC(=O)c1ccc(Sc2ccccc2)c([N+](=O)[O-])c1 |  | inactive: 2.17%
COc1cccc(CN2CC3(CCN(C(=O)CSC(C)C)CC3)CC2=O)c1 |  | inactive: 20.1%

Compound | Potency | activity change, negative = inhibition
CC1=C(C(=O)NCc2ccccc2)C(c2cc(Br)cc(Br)c2OC(C)C)NC(=O)N1 (configuration not stated) |  | inconclusive: -34.7% [inhibitor]
COc1cccc(Nc2nc(-c3ccc4c(c3)CCC(=O)N4)cs2)c1 | inconclusive: 5.01 µM [inhibitor, full curve, poor fit] | 
NC(=O)c1ccc(CN(C2CC2)S(=O)(=O)c2cccc3nsnc23)cc1 |  | inactive: -2.43%
COc1ccc(Cn2c(-c3ccc(OC)cc3)n[nH]c2=S)cc1 | active: 15.8 µM | 
Cc1oc(-c2cccs2)nc1C(=O)NC(C)COCC(F)(F)F (configuration not stated) |  | inactive: 1.87%
Cc1cc(C)c(C#N)c(SCC(=O)CC(=O)OC(C)C)n1 | inconclusive: 2 µM [inhibitor, full curve, poor fit] | 
CCCCc1cc2c(cn1)=C(OC(=O)c1cnc3ccccc3n1)C(C)(OC(=O)CC)C(=O)C=2 (configuration not stated) | inconclusive: 5.01 µM [inhibitor, full curve, poor fit] | 
O=C(O)CCc1ccc(-c2ccc(F)cc2)n1CC(=O)O | inconclusive: 56.2 µM [inhibitor, single point] | 
CCn1c(O)c(/C=N/n2cnnc2)sc1=S | inconclusive: 6.31 µM [inhibitor, partial curve, poor fit] | 
O=C(/C=C/c1cccnc1)c1ccc(F)c(F)c1 |  | inactive: -4.6%
COc1ccc(N2C(=O)CC(Nc3ccc(N4CCOCC4)cc3)C2=O)c(OC)c1 (configuration not stated) | inconclusive: 2.82 µM [inhibitor, full curve, poor fit] | 
COC(=O)c1cc(NC(=O)c2ccccc2OC)c(F)cc1F | inconclusive: 35.5 µM [inhibitor, partial curve, poor fit] | 
Cc1ccccc1N1CC(=O)Nc2c(oc3nc(-c4ccccc4)cc(C)c23)C1=O | inconclusive: 126 µM [inhibitor, single point] | 
CCOc1ccc(CCNC(=O)c2cc3sccc3n2CC)cc1OCC | inconclusive: 141 µM [inhibitor, single point] | 
NS(=O)(=O)c1ccc(-c2ccc(/C=C3\NC(=S)NC3=O)o2)cc1 | inconclusive: 39.8 µM [inhibitor, partial curve] | 
COCCSc1ccccc1C(=O)Nc1ccc(Cl)cc1 | active: 17.8 µM | 
CCCc1c/c(=N\O)oc2cc(C)c3c(C)c(C)oc3c12 | inconclusive: 35.5 µM [inhibitor, single point] | 
CC(=O)c1ccc(NC(=O)[C@@]2(CC(=O)O)CC(c3ccc(C)cc3)=NO2)cc1 |  | inactive: -23.3%
CC(C)=CCc1c(O)ccc(C2COc3c(CC=C(C)C)c(O)cc(O)c3C2=O)c1O (configuration not stated) | inconclusive: 79.4 µM [inhibitor, partial curve, poor fit] | 
CCc1ccc(OCC(O)CN2CCCC2)cc1 (configuration not stated) | inconclusive: 39.8 µM [inhibitor, partial curve, poor fit] | 
O=C(Nc1ccc2c(N3CCOCC3)ncnc2c1)c1ccc(F)c(Cl)c1 |  | inactive: 12.7%

Part of the list above, as tab-separated lines.
Compound	Potency	activity change, negative = inhibition
O=C(/C=C/c1cccnc1)c1ccc(F)c(F)c1		inactive: -4.6%
COc1ccc(N2C(=O)CC(Nc3ccc(N4CCOCC4)cc3)C2=O)c(OC)c1 (configuration not stated)	inconclusive: 2.82 µM [inhibitor, full curve, poor fit]	
